Measurements reported in PubChem BioAssay AID1259286 (Sanger Institute, 2017)

- Aim: 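Kinome knock-downs lethal on their own or synergistic with anchor drugs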 (primary screen)
- System: NCI-H630 human colorectal cancer cells
- Reagent: siRNA pool against human genes
- Conditions: anchor drugs BYL719 at 1 µM, cetuximab at 5 µg/ml or trametinib at 10 nM, or DMSO vehicle alone; exposure time not given
- Measured: 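Viability relative to non-targeting pool wells, averaged over replicates, with robust z-score for knock-down alone and a synergy score for each anchor drug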
- Direction: viability z-score, knock-down alone: higher = more viable cells, weaker knock-down effect; viability vs control, knock-down alone: higher = more viable cells; synergy score with trametinib: higher = stronger synergistic killing with trametinib; synergy score with BYL719: higher = stronger synergistic killing with BYL719; synergy score with cetuximab: higher = stronger synergistic killing with cetuximab
- Call rule: 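a gene is called essential when its knock-down-alone viability robust z-score is below -3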
- Meaning of the calls: active = essential when knocked down alone; inactive = not essential alone
Shown is an unselected part of 794 reagents. Over the whole deposit, 17 (2.1%) are marked active. 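Calls use knock-down alone only; synergy above 0.15 marked separately; viability seems capped at control level; exposure time not given.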 Entries without a mark were called inactive. No sequences are given here. The record does not give: the amount of reagent, the time to read-out.

The first 2 records as a preview:
target	viability z-score, knock-down alone	viability vs control, knock-down alone (fraction of control)	synergy score with trametinib	synergy score with BYL719	synergy score with cetuximab
RIOK2	0.464	1	-0.0479	-0.0814	0.0552
DGKQ	0.464	1	-0.0349	-0.0156	0.115

The listing, from the start:
target	viability z-score, knock-down alone	viability vs control, knock-down alone (fraction of control)	synergy score with trametinib	synergy score with BYL719	synergy score with cetuximab
RIOK2	0.464	1	-0.0479	-0.0814	0.0552
DGKQ	0.464	1	-0.0349	-0.0156	0.115
NF1	0.464	1	0.0188	-0.0531	-0.0707
NPR2	-0.51	0.963	-0.0555	-0.115	-0.0832
MAPK4	-0.523	0.963	-0.0834	-0.0275	-0.0215
PASK	-1.41	0.929	-0.0669	-0.0814	0.00896
PRKAB1	-0.489	0.964	-0.0117	-0.0035	-0.0544
MTOR	0.464	1	0.000911	0.000194	0.0332
MYO3A	0.035	0.984	-0.0449	0.00185	0.014
MLKL	0.464	1	-0.0479	-0.0814	0.0532
CKMT2	0.337	0.995	-0.0255	0.0341	-0.00561
LIMK1	0.464	1	0.0318	-0.0814	-0.0273
PIK3C2A	0.464	1	0.0438	0.0212	0.0389
STK16	0.464	1	-0.0479	-0.0028	-0.0144
MUSK	0.464	1	-0.0479	0.0292	0.085
PIK3CG	0.314	0.994	-0.00189	-0.0866	0.073
CDK12	0.464	1	-0.0479	-0.0106	-0.089
FOXP1	0.464	1	0.0527	0.12	0.159
MAPK15	0.464	1	-0.0479	-0.0184	-0.0294
CASK	0.464	1	-0.0465	0.0227	0.121
